{"sequences": {"note": "Chains of the proteins cited; added tags and fusions are not shown. Lines headed by an entry give the natural chain unless they say otherwise; changes in a name come on top.", "UniProt P51813": "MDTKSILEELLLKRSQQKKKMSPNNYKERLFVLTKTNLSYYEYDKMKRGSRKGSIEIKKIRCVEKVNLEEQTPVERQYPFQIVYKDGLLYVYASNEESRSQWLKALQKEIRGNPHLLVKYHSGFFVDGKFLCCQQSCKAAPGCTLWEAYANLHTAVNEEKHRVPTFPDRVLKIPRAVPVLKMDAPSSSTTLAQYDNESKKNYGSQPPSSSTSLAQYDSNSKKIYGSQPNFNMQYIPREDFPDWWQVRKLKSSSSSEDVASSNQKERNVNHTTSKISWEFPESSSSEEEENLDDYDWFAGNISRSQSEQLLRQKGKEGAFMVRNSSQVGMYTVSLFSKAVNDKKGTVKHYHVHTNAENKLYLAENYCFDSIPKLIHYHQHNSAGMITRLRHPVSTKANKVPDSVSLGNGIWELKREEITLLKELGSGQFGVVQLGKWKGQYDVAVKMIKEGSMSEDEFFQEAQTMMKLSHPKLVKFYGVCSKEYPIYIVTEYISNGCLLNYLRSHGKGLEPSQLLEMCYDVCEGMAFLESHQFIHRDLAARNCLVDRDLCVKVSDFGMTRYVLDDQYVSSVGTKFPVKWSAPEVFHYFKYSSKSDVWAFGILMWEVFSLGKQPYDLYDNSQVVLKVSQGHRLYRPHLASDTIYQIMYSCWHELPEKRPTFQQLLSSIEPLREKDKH", "UniProt P10721, whole entry A829P": "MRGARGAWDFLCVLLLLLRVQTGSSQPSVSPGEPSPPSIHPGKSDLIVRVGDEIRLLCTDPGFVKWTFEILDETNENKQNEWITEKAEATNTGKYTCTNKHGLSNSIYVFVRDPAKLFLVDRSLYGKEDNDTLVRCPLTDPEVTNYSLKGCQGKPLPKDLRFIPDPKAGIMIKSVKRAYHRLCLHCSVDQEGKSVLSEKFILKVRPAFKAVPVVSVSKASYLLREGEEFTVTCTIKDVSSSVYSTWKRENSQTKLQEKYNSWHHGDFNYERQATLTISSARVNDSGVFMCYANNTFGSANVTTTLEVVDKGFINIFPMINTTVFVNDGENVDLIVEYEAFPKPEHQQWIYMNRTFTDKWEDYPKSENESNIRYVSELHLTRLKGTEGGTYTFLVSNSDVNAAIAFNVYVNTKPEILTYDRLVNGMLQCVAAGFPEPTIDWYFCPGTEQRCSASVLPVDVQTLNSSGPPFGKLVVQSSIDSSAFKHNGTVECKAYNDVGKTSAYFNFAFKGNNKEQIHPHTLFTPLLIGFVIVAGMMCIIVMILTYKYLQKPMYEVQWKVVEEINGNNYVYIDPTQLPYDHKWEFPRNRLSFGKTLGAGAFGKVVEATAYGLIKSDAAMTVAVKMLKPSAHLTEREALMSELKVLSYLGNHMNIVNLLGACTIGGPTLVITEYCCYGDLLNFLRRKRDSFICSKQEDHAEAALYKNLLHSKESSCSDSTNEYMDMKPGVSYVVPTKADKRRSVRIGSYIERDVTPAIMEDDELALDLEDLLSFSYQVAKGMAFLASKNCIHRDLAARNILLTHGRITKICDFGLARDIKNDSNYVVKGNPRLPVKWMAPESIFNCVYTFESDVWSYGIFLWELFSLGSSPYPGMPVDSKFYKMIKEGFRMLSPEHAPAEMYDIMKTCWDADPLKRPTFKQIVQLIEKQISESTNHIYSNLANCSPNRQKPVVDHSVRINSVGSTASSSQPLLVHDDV", "UniProt P10721, whole entry D816H": "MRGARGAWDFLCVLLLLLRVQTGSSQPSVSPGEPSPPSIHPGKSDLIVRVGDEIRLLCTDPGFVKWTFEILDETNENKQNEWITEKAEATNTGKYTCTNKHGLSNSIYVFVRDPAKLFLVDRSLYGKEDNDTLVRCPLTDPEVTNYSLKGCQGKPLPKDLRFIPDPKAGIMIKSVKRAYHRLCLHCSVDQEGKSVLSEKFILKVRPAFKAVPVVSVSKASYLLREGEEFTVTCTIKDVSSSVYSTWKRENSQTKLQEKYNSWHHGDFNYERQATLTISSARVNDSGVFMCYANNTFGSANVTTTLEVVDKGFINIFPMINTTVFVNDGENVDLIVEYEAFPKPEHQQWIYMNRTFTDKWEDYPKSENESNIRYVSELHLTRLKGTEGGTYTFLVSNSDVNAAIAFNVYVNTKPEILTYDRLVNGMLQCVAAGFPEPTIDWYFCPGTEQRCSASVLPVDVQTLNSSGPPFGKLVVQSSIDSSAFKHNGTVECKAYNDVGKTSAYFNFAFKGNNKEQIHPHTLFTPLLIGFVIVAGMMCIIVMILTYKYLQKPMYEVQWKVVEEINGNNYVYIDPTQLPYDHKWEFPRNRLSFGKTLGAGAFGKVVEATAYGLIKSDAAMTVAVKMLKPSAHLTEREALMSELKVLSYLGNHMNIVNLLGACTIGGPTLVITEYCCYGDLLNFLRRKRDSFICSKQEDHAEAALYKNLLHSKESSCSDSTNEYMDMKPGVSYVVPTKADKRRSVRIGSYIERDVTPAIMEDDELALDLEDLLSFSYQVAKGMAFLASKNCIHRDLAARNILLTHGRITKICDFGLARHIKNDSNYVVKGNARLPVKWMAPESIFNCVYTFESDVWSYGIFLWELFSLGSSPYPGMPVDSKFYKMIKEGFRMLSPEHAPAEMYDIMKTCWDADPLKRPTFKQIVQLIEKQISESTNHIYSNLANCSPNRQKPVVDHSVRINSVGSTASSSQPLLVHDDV", "UniProt P10721, whole entry D816V": "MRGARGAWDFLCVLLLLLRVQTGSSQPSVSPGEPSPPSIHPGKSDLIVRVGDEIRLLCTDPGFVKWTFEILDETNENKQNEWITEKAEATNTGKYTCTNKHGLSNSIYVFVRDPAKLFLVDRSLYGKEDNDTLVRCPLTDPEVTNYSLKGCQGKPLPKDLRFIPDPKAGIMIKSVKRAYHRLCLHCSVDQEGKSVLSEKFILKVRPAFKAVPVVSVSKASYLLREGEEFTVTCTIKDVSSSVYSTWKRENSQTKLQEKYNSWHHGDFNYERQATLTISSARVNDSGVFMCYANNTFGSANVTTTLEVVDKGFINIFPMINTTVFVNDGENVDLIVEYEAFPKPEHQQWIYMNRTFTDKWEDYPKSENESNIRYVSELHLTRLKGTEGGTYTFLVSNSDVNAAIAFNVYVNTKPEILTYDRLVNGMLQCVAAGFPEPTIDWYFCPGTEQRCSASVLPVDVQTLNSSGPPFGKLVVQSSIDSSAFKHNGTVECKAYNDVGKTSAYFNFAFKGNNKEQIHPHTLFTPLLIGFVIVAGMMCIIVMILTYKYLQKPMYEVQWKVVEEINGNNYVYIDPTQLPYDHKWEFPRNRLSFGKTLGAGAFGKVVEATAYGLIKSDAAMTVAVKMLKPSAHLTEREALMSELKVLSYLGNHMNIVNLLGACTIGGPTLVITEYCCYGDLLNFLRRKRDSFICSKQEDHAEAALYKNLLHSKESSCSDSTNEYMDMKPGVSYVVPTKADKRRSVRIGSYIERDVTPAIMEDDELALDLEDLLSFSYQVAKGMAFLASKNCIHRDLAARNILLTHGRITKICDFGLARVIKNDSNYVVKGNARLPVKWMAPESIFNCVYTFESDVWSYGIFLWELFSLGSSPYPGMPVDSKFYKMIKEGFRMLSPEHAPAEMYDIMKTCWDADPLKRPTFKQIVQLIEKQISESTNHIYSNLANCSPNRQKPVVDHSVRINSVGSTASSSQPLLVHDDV", "UniProt P10721, whole entry L576P": "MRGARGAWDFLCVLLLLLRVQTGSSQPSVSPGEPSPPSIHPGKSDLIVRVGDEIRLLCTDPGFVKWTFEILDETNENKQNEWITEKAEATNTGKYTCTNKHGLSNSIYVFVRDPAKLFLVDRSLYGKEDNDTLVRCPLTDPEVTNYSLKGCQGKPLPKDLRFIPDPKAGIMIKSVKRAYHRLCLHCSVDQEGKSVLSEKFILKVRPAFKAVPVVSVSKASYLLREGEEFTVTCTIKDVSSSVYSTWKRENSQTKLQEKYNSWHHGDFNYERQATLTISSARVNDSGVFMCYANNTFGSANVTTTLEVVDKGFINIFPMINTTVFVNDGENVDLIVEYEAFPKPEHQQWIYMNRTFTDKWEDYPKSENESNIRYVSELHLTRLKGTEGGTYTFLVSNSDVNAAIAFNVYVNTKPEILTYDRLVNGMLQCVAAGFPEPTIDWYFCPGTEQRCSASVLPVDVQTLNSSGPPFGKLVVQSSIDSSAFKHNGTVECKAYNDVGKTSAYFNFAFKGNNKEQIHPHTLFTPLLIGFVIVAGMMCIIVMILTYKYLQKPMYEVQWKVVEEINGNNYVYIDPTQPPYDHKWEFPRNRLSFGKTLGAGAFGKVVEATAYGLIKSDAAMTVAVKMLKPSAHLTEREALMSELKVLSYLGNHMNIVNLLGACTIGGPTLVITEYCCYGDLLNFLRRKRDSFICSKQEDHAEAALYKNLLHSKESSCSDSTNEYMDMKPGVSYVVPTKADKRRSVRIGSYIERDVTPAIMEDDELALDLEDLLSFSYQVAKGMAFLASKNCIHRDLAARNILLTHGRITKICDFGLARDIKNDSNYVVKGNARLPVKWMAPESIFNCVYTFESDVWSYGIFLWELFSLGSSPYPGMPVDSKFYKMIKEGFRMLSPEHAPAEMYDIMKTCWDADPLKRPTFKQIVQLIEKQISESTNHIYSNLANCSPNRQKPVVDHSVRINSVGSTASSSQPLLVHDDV", "UniProt P10721, whole entry V559D/T670I": "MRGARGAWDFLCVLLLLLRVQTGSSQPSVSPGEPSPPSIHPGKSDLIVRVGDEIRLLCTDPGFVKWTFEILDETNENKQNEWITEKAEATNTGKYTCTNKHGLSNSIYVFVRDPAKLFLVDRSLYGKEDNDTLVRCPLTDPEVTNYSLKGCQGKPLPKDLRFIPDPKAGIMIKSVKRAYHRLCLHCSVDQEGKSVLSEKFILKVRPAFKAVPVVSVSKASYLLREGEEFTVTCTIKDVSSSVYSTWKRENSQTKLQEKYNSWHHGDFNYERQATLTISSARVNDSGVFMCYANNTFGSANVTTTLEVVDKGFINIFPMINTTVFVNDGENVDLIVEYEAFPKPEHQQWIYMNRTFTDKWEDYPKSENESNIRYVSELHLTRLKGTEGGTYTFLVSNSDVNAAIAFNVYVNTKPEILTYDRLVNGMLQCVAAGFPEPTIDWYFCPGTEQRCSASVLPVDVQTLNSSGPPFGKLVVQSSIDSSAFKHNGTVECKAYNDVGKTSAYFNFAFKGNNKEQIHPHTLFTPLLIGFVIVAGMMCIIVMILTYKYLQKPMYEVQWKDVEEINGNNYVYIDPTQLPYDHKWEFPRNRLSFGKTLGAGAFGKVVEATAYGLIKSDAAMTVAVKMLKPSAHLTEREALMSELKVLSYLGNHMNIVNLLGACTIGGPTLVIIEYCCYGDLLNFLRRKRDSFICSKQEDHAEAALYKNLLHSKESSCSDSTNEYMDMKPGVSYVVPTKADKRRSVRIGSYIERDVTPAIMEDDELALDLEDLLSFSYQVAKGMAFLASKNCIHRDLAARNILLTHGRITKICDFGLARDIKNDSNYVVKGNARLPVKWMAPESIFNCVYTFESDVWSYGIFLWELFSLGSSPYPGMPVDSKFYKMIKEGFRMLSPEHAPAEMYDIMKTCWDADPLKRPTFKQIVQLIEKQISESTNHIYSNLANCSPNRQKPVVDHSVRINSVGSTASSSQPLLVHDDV", "UniProt P10721, whole entry V559D/V654A": "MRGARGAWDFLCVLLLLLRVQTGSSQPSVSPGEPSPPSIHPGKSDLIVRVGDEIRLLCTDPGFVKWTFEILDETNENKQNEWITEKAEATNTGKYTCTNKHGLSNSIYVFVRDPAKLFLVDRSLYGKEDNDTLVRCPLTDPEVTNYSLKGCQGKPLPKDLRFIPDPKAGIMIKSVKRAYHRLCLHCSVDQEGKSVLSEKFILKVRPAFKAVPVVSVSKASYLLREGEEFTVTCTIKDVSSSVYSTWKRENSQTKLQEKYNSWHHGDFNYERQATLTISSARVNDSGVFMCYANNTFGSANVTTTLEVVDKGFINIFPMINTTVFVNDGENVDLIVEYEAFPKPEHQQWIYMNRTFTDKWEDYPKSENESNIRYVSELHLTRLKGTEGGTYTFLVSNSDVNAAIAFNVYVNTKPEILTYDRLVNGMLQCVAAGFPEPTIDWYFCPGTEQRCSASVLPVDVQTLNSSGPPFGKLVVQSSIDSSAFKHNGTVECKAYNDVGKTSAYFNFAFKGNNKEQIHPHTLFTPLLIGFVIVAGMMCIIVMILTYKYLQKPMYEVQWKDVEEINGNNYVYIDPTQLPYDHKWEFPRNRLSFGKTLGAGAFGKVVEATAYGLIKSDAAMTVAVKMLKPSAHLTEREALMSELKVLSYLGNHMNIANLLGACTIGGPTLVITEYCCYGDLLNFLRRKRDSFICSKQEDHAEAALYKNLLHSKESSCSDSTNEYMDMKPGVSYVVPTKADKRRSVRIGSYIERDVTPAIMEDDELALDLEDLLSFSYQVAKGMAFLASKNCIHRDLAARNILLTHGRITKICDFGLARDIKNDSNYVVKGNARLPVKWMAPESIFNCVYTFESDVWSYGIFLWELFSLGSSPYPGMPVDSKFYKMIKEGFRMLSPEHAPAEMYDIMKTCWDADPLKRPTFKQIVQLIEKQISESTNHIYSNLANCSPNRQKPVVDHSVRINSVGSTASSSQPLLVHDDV"}, "source": "ChEMBL document CHEMBL5465560", "about": "“Selectivity Literature for EUbOPEN Chemogenomic Library” (2024)", "details_in_all_cases": "at 1 µM", "key": {"[1]": {"target": "Tyrosine-protein kinase ABL1 (Homo sapiens, UniProt P00519)", "assay": "Selectivity interaction (KinomeScan (DiscoverX)) EUB0001581a ABL1"}, "[2]": {"target": "Cytoplasmic tyrosine-protein kinase BMX (Homo sapiens) (UniProt P51813)", "assay": "Selectivity interaction (KinomeScan (DiscoverX)) EUB0001581a BMX"}, "[3]": {"target": "Peripheral plasma membrane protein CASK (Homo sapiens) (UniProt O14936)", "assay": "Selectivity interaction (KinomeScan (DiscoverX)) EUB0001581a CASK"}, "[4]": {"target": "Dual specificity protein kinase CLK4 (Homo sapiens, UniProt Q9HAZ1)", "assay": "Selectivity interaction (KinomeScan (DiscoverX)) EUB0001581a CLK4"}, "[5]": {"target": "Ephrin type-B receptor 3 (Homo sapiens) (UniProt P54753)", "assay": "Selectivity interaction (KinomeScan (DiscoverX)) EUB0001581a EPHB3"}, "[6]": {"target": "Ephrin type-B receptor 4 (Homo sapiens) (UniProt P54760)", "assay": "Selectivity interaction (KinomeScan (DiscoverX)) EUB0001581a EPHB4"}, "[7]": {"target": "Cyclin-G-associated kinase (Homo sapiens) (UniProt O14976)", "assay": "Selectivity interaction (KinomeScan (DiscoverX)) EUB0001581a GAK"}, "[8]": {"target": "Hormonally up-regulated neu tumor-associated kinase (Homo sapiens) (UniProt P57058)", "assay": "Selectivity interaction (KinomeScan (DiscoverX)) EUB0001581a HUNK"}, "[9]": {"test_system": "Mast/stem cell growth factor receptor Kit (Homo sapiens), P10721 [A829P]", "assay": "(§1) Selectivity interaction (KinomeScan (DiscoverX)) EUB0001581a KIT"}, "[10]": {"test_system": "Mast/stem cell growth factor receptor Kit (Homo sapiens), P10721 [D816H]", "assay": "as §1"}, "[11]": {"test_system": "Mast/stem cell growth factor receptor Kit (Homo sapiens), P10721 [D816V]", "assay": "as §1"}, "[12]": {"test_system": "Mast/stem cell growth factor receptor Kit (Homo sapiens), P10721 [L576P]", "assay": "as §1"}, "[13]": {"test_system": "Mast/stem cell growth factor receptor Kit (Homo sapiens), P10721 [V559D,T670I]", "assay": "as §1"}, "[14]": {"test_system": "Mast/stem cell growth factor receptor Kit (Homo sapiens), P10721 [V559D,V654A]", "assay": "as §1"}, "[15]": {"test_system": "Mast/stem cell growth factor receptor Kit (Homo sapiens), P10721 [V559D]", "assay": "as §1"}, "[16]": {"target": "Mast/stem cell growth factor receptor Kit (Homo sapiens, UniProt P10721)", "assay": "as §1"}, "[17]": {"target": "Tyrosine-protein kinase Lck (Homo sapiens, UniProt P06239)", "assay": "Selectivity interaction (KinomeScan (DiscoverX)) EUB0001581a LCK"}, "[18]": {"target": "Dual specificity mitogen-activated protein kinase kinase 2 (Homo sapiens) (UniProt P36507)", "assay": "Selectivity interaction (KinomeScan (DiscoverX)) EUB0001581a MAP2K2"}, "[19]": {"target": "Dual specificity mitogen-activated protein kinase kinase 3 (Homo sapiens) (UniProt P46734)", "assay": "Selectivity interaction (KinomeScan (DiscoverX)) EUB0001581a MAP2K3"}, "[20]": {"target": "Mitogen-activated protein kinase kinase kinase 12 (Homo sapiens) (UniProt Q12852)", "assay": "Selectivity interaction (KinomeScan (DiscoverX)) EUB0001581a MAP3K12"}, "[21]": {"target": "Mitogen-activated protein kinase kinase kinase 7 (Homo sapiens) (UniProt O43318)", "assay": "Selectivity interaction (KinomeScan (DiscoverX)) EUB0001581a MAP3K7"}, "[22]": {"target": "Mitogen-activated protein kinase kinase kinase kinase 1 (Homo sapiens) (UniProt Q92918)", "assay": "Selectivity interaction (KinomeScan (DiscoverX)) EUB0001581a MAP4K1"}, "[23]": {"target": "Mitogen-activated protein kinase 11 (Homo sapiens) (UniProt Q15759)", "assay": "Selectivity interaction (KinomeScan (DiscoverX)) EUB0001581a MAPK11"}, "[24]": {"target": "Mitogen-activated protein kinase 4 (Homo sapiens) (UniProt P31152)", "assay": "Selectivity interaction (KinomeScan (DiscoverX)) EUB0001581a MAPK4"}, "[25]": {"target": "MAP/microtubule affinity-regulating kinase 3 (Homo sapiens) (UniProt P27448)", "assay": "Selectivity interaction (KinomeScan (DiscoverX)) EUB0001581a MARK3"}, "[26]": {"target": "Microtubule-associated serine/threonine-protein kinase 1 (Homo sapiens) (UniProt Q9Y2H9)", "assay": "Selectivity interaction (KinomeScan (DiscoverX)) EUB0001581a MAST1"}, "[27]": {"target": "Megakaryocyte-associated tyrosine-protein kinase (Homo sapiens) (UniProt P42679)", "assay": "Selectivity interaction (KinomeScan (DiscoverX)) EUB0001581a MATK"}, "[28]": {"target": "Serine/threonine-protein kinase Nek7 (Homo sapiens) (UniProt Q8TDX7)", "assay": "Selectivity interaction (KinomeScan (DiscoverX)) EUB0001581a NEK7"}, "[29]": {"target": "Protein kinase C delta type (Homo sapiens) (UniProt Q05655)", "assay": "Selectivity interaction (KinomeScan (DiscoverX)) EUB0001581a PRKCD"}, "[30]": {"target": "Protein kinase C iota type (Homo sapiens) (UniProt P41743)", "assay": "Selectivity interaction (KinomeScan (DiscoverX)) EUB0001581a PRKCI"}, "[31]": {"target": "Receptor-interacting serine/threonine-protein kinase 1 (Homo sapiens) (UniProt Q13546)", "assay": "Selectivity interaction (KinomeScan (DiscoverX)) EUB0001581a RIPK1"}, "[32]": {"target": "Rho-associated protein kinase 1 (Homo sapiens) (UniProt Q13464)", "assay": "Selectivity interaction (KinomeScan (DiscoverX)) EUB0001581a ROCK1"}, "[33]": {"target": "Proto-oncogene tyrosine-protein kinase Src (Homo sapiens, UniProt P12931)", "assay": "Selectivity interaction (KinomeScan (DiscoverX)) EUB0001581a SRC"}, "[34]": {"target": "Serine/threonine-protein kinase 38-like (Homo sapiens) (UniProt Q9Y2H1)", "assay": "Selectivity interaction (KinomeScan (DiscoverX)) EUB0001581a STK38L"}, "Activated CDC42 kinase 1": {"target": "Activated CDC42 kinase 1 (Homo sapiens, UniProt Q07912)", "assay": "Selectivity interaction (KinomeScan (DiscoverX)) EUB0001581a TNK2"}, "[35]": {"target": "Serine/threonine-protein kinase ULK2 (Homo sapiens) (UniProt Q8IYT8)", "assay": "Selectivity interaction (KinomeScan (DiscoverX)) EUB0001581a ULK2"}, "[36]": {"target": "Myosin light chain kinase, smooth muscle (Homo sapiens, UniProt Q15746)"}}}
{"smiles": "C[C@@H]1C[C@H](N)C[C@H](c2ccncc2NC(=O)c2ccc(F)c(-c3c(F)cccc3F)n2)C1", "values": [{"measurement": "% of control", "setting": "[1]", "result": 100, "unit": "%"}, {"measurement": "% of control", "setting": "[2]", "result": 100, "unit": "%"}, {"measurement": "% of control", "setting": "[3]", "result": 84, "unit": "%"}, {"measurement": "% of control", "setting": "[4]", "result": 53, "unit": "%"}, {"measurement": "% of control", "setting": "[5]", "result": 77, "unit": "%"}, {"measurement": "% of control", "setting": "[6]", "result": 100, "unit": "%"}, {"measurement": "% of control", "setting": "[7]", "result": 100, "unit": "%"}, {"measurement": "% of control", "setting": "[8]", "result": 100, "unit": "%"}, {"measurement": "% of control", "setting": "[9]", "result": 100, "unit": "%"}, {"measurement": "% of control", "setting": "[10]", "result": 98, "unit": "%"}, {"measurement": "% of control", "setting": "[11]", "result": 83, "unit": "%"}, {"measurement": "% of control", "setting": "[12]", "result": 100, "unit": "%"}, {"measurement": "% of control", "setting": "[13]", "result": 85, "unit": "%"}, {"measurement": "% of control", "setting": "[14]", "result": 100, "unit": "%"}, {"measurement": "% of control", "setting": "[15]", "result": 92, "unit": "%"}, {"measurement": "% of control", "setting": "[16]", "result": 82, "unit": "%"}, {"measurement": "% of control", "setting": "[17]", "result": 98, "unit": "%"}, {"measurement": "% of control", "setting": "[18]", "result": 97, "unit": "%"}, {"measurement": "% of control", "setting": "[19]", "result": 65, "unit": "%"}, {"measurement": "% of control", "setting": "[20]", "result": 100, "unit": "%"}, {"measurement": "% of control", "setting": "[21]", "result": 82, "unit": "%"}, {"measurement": "% of control", "setting": "[22]", "result": 87, "unit": "%"}, {"measurement": "% of control", "setting": "[23]", "result": 100, "unit": "%"}, {"measurement": "% of control", "setting": "[24]", "result": 99, "unit": "%"}, {"measurement": "% of control", "setting": "[25]", "result": 98, "unit": "%"}, {"measurement": "% of control", "setting": "[26]", "result": 100, "unit": "%"}, {"measurement": "% of control", "setting": "[27]", "result": 89, "unit": "%"}, {"measurement": "% of control", "setting": "[28]", "result": 100, "unit": "%"}, {"measurement": "% of control", "setting": "[29]", "result": 72, "unit": "%"}, {"measurement": "% of control", "setting": "[30]", "result": 81, "unit": "%"}, {"measurement": "% of control", "setting": "[31]", "result": 90, "unit": "%"}, {"measurement": "% of control", "setting": "[32]", "result": 100, "unit": "%"}, {"measurement": "% of control", "setting": "[33]", "result": 100, "unit": "%"}, {"measurement": "% of control", "setting": "[34]", "result": 99, "unit": "%"}, {"measurement": "% of control", "setting": "Activated CDC42 kinase 1", "result": 100, "unit": "%"}, {"measurement": "% of control", "setting": "[35]", "result": 100, "unit": "%"}, {"measurement": "% of control", "setting": "[36]", "result": 96, "unit": "%"}]}
